Data reported in patent CN114685666A.
These are yes or no findings as the source states them, for the method shown. Some binding calls cover weakened binding; strength is not graded here.

By UniProt entry, the sequences of proteins in these tests, tags left out. Where a name states a change or a piece, a line headed by the entry shows the natural chain unless it says otherwise. Chains listed by the source or under a name are the forms on record and can include a tag or linker.
人MSLN.His抗原 (MSLN.His蛋白, 义翘神州科技股份有限公司, MSN-H5223) (Q13421, form named): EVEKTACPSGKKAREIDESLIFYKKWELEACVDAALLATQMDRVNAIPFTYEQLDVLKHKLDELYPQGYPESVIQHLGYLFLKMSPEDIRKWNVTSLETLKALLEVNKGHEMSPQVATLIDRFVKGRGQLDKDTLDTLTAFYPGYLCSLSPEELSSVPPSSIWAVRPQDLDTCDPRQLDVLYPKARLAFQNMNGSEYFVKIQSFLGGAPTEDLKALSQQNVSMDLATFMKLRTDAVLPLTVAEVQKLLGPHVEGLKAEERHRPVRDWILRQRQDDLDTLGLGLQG

Target: 人MSLN.His抗原 (MSLN.His蛋白, 义翘神州科技股份有限公司, MSN-H5223) (human) (UniProt Q13421)
Test: ELISA screening of TG1 supernatants after phage panning, sequence analysis

B1: M2339 纳米抗体克隆 (VHH expressed in TG1 after phage panning) (VHH)
VHH: QLQLGASGGGLVQPGGSLRLSCALSGFTLRELDEFAIGWFRQAPGKEREGVSCISGTGGITHYADSVKGRFTISRDIAKTTVYLQMNSLNSEDTAVYYCAADERCTDRLIRPPTYWGQGTQVTVSS
  binding: binds
